According to US9801918B2, “Methods of treatment using extracts of Anisomeles heyneana” (Council of Scientific & Industrial Research, priority 2011, dated 2017):

Experiment: Solar cell sensitizing activity in dye sensitized solar cells (DSSCs)
Conditions: DSSC sensitized with compound; 100 mW/cm^2, 1 sun AM 1.5

C[C@@H]1O[C@@H](O[C@@H]2[C@@H](O)[C@H](OCCc3ccc(O)c(O)c3)O[C@H](CO)[C@H]2OC(=O)/C=C/c2ccc(O)c(O)c2)[C@H](O)[C@H](O)[C@H]1O [Compound 3, 2-(3,4-dihydroxyphenyl)ethyl 3-O-(6-deoxy-alpha-L-mannopyranosyl)-4-O-[(2E)-3-(3,4-dihydroxyphenyl)prop-2-enoyl]-beta-D-gluco pyrano side]
Eff. (conversion efficiency of solar energy into electric current): 0.28%
FF: 59.1%
Isc: 0.15 mA
Voc: 0.49 V
